No constants are given. Whether binding was seen depends on the method and setting. In cells and extracts the contact can be indirect. Some entries that bind do so weakly or less than the wild type. One block for each molecule: values may come before it.
What was measured:
[1] = target: T1, Sla1 (S. cerevisiae) (UniProt P32790); assay: split reporter
T1 sequence: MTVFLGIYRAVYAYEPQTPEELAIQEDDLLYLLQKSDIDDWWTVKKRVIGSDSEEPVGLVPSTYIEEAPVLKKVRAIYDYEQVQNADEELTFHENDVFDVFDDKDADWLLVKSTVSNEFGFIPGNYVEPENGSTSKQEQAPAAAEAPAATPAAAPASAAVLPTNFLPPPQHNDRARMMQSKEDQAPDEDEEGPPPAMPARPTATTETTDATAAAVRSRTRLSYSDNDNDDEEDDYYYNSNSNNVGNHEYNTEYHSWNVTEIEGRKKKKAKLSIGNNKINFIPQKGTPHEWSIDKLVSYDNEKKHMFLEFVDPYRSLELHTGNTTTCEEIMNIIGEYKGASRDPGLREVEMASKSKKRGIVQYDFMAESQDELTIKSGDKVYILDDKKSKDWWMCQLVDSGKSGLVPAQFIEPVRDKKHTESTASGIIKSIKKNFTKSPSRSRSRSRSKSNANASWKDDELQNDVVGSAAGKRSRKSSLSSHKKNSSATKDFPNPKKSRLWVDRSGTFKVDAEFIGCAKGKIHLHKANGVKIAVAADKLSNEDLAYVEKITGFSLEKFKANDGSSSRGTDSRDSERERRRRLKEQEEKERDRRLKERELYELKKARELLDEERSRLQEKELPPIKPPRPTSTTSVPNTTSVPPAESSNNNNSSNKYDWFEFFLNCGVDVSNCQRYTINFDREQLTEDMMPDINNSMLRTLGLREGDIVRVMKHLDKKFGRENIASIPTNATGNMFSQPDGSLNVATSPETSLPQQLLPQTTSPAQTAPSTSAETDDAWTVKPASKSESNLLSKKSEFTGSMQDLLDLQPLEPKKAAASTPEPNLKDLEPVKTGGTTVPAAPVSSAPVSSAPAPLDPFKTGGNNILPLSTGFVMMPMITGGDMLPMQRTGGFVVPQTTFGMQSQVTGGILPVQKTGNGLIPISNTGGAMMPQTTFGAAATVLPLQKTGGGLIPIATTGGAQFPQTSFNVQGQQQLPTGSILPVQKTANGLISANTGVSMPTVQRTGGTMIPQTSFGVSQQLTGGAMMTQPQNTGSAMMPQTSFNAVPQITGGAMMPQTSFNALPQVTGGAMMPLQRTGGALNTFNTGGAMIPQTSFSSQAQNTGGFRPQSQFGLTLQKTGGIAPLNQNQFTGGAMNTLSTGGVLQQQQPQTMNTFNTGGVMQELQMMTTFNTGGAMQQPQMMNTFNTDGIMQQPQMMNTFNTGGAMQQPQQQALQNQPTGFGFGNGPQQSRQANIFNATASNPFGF

Amino acid sequences for entries named in this document (tags omitted).
UniProt P38328: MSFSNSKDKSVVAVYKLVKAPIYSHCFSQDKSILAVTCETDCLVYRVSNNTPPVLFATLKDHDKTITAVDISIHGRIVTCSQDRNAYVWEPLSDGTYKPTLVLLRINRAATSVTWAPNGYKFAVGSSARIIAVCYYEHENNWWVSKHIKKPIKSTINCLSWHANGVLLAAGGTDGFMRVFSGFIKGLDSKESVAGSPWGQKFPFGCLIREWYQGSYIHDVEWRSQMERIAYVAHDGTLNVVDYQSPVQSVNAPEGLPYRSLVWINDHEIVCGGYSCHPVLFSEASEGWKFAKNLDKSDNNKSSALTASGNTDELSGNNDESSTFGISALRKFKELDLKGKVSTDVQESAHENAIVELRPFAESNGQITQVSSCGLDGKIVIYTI
UniProt P22137: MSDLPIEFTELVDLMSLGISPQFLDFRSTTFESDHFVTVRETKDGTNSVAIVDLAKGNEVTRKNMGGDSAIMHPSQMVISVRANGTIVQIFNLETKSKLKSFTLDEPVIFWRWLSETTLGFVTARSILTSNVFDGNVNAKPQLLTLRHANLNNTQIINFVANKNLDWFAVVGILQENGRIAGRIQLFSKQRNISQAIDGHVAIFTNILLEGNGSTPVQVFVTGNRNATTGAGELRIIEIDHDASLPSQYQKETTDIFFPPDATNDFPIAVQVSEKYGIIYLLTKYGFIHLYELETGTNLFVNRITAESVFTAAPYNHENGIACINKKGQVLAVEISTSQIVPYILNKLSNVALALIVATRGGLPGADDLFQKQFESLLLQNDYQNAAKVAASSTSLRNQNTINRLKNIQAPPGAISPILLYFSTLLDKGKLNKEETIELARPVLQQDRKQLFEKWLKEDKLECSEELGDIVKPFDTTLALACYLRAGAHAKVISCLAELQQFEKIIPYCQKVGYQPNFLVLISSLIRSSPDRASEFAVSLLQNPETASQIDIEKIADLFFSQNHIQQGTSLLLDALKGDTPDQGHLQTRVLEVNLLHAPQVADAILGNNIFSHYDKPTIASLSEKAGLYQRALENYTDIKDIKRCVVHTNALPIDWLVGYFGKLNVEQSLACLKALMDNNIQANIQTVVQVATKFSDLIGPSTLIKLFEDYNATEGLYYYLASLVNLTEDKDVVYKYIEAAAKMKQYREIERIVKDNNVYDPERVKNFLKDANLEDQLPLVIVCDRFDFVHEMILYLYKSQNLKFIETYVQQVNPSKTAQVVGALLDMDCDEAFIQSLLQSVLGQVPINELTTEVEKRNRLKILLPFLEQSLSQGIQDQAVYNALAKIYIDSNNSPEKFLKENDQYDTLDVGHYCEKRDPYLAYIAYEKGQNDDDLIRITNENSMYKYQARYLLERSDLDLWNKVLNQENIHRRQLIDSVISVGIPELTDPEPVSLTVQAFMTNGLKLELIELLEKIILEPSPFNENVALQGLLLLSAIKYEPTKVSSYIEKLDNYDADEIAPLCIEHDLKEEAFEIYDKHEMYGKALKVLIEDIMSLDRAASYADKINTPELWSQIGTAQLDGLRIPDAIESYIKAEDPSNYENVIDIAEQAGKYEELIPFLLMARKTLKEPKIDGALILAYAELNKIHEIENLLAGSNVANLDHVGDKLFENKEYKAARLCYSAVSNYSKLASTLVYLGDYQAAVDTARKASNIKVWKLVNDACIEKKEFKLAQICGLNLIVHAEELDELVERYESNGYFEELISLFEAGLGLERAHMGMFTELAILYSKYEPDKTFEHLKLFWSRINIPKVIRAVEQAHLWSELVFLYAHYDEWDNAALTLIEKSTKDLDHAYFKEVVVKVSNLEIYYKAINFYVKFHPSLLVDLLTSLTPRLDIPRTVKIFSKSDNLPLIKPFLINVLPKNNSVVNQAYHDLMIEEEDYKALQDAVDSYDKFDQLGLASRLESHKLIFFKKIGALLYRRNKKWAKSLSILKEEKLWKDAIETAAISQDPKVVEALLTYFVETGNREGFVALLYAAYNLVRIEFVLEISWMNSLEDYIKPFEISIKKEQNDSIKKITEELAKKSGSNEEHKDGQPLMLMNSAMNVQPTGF
UniProt Q12446: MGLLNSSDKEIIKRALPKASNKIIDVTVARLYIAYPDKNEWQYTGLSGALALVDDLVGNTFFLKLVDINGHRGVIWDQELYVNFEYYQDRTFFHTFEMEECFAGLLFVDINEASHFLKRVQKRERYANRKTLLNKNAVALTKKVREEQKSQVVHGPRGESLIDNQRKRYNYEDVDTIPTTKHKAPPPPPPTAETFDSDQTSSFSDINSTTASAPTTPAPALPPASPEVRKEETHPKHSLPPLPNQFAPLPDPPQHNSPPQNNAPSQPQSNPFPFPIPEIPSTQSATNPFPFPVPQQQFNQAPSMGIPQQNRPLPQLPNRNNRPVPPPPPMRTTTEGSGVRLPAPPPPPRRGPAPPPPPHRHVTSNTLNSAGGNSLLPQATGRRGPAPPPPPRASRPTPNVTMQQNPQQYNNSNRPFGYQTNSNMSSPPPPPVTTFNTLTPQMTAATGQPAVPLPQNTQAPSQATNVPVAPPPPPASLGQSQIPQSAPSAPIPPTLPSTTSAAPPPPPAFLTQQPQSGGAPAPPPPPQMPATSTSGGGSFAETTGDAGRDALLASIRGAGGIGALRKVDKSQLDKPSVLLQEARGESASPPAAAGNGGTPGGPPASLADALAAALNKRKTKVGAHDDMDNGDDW
UniProt P31539: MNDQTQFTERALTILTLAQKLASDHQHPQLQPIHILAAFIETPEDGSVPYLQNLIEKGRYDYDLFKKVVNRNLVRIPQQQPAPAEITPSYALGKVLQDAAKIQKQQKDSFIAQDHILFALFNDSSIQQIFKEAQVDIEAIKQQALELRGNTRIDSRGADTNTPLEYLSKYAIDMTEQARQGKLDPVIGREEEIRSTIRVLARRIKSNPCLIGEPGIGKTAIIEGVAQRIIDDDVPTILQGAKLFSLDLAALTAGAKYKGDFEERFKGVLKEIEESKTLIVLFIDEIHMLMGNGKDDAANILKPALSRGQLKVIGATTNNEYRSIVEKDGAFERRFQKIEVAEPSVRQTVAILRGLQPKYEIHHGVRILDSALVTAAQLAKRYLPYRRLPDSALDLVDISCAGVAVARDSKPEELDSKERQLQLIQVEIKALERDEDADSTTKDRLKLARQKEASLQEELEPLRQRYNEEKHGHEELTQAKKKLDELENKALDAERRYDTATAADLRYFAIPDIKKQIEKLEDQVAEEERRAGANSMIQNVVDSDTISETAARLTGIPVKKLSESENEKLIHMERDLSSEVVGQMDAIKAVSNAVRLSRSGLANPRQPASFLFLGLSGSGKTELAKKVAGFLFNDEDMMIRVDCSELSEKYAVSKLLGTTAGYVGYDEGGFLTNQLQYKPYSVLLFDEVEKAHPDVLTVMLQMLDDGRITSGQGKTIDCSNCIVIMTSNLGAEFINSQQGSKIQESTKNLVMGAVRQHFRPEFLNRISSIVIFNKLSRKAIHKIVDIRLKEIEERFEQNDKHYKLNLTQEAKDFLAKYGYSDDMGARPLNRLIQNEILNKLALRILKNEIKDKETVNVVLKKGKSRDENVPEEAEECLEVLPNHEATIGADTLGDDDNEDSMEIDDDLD

[2] = target: T2, Sla1 (S. cerevisiae), P32790; assay: split reporter; details: remark: other sources report otherwise
T2 chain: T1 sequence

Molecule: Arc40 (from UniProt P38328 1-384)
- binding [1]: binds

B1: Yap1802 (protein, UniProt P53309 1-568)
chain: MSSLYTKLVKGATKIKMAPPKQKYVDPILSGTSSARGLQEITHALDIRLSDTAWTIVYKALIVLHLMIQQGEKDVTLRHYSHNLDVFQLRKISHTTKWSSNDMRALQRYDEYLKTRCEEYGRLGMDHLRDNYSSLKLGSKNQLSMDEELDHVESLEIQINALIRNKYSVSDLENHLLLYAFQLLVQDLLGLYNALNEGVITLLESFFELSIEHAKRTLDLYKDFVDMTEYVVRYLKIGKAVGLKIPVIKHITTKLINSLEEHLREETKRQRGEPSEPQQDRKPSTAISSTSSHNNNSNDKNKSIAQKKLEQIREQKRLLEQQLQNQQLLISPTVPQDAYNPFGSQQQDLNNDTFSFEPTQPQMTAQVPQPTANPFLIPQQQQQALQLTSASTMPQPSEIQITPNLNNQQTGMYASNLQYTPNFTGSGFGGYTTTENNAIMTGTLDPTKTGSNNPFSLENIAREQQQQNFQNSPNPFTLQQAQTTPILAHSQTGNPFQAQNVVTSPMGTYMTNPVAGQLQYASTGAQQQPQMMQGQQTGYVMVPTAFVPINQQQQQQQHQQENPNLIDI
- binding [1]: binds

B2: End3, P39013 1-349 (protein)
chain: MPKLEQFEIKKYWQIFSGLKPIENKVNHDQVLPILYNSKLDSSVLNKIWFLADIDDDDNLDFEEFVICMRLIFDMVNKNISSVPDELPDWLIPGSKVNLIKERKKRKQIENADLPPKKEIKVDWYMSPDDLNQYEKIYNSCAKLTDGTITFNELSTKLSTKFFNISKTDLNKVWSLINPQNLPSIDRDPTFYFIHCLRQRNDLGAEIPASLPNSLAEVCNKKQLSYDLRSSQPPTKRKEEANEVDNLRDNGQNSSSDSSGSNVLSNEDSIKQKYASLTDDQVANMREQLEGLLNYKKSEKTQGGSKLSKRINIRSITDDLDNIEQQVEVLENYLNNKRHELQALQAEIN
- binding [2]: binds

B3: Ede1 (protein, UniProt P34216 1-1381)
chain: MASITFRTPLSSQEQAFYNQKFHQLDTEDLGVVTGEAVRPLFASSGLPGQLLSQVWATVDIDNKGFLNLNEFSAALRMIAQLQNAPNQPISAALYESTPTQLASFSINQNPAPMQSGSATGNTNNTDIPALSSNDIAKFSQLFDRTAKGAQTVAGDKAKDIFLKARLPNQTLGEIWALCDRDASGVLDKSEFIMAMYLIQLCMSHHPSMNTPPAVLPTQLWDSIRLEPVVVNQPNRTTPLSANSTGVSSLTRHSTISRLSTGAFSNAASDWSLSFEKKQQFDAIFDSLDKQHAGSLSSAVLVPFFLSSRLNQETLATIWDLADIHNNAEFTKLEFAIAMFLIQKKNAGVELPDVIPNELLQSPALGLYPPNPLPQQQSAPQIAIPSRASKPSLQDMPHQVSAPAVNTQPTVPQVLPQNSNNGSLNDLLALNPSFSSPSPTKAQTVVQNNTNNSFSYDNNNGQATLQQQQPQQPPPLTHSSSGLKKFTPTSNFGQSIIKEEPEEQEQLRESSDTFSAQPPPVPKHASSPVKRTASTTLPQVPNFSVFSMPAGAATSAATGAAVGAAVGAAALGASAFSRSSNNAFKNQDLFADGEASAQLSNATTEMANLSNQVNSLSKQASITNDKKSRATQELKRVTEMKNSIQIKLNNLRSTHDQNVKQTEQLEAQVLQVNKENETLAQQLAVSEANYHAAESKLNELTTDLQESQTKNAELKEQITNLNSMTASLQSQLNEKQQQVKQERSMVDVNSKQLELNQVTVANLQKEIDGLGEKISVYLTKQKELNDYQKTVEEQHAQLQAKYQDLSNKDTDLTDREKQLEERNRQIEEQENLYHQHVSKLQEMFDDLSQRKASFEKADQELKERNIEYANNVRELSERQMNLAMGQLPEDAKDIIAKSASNTDTTTKEATSRGNVHEDTVSKFVETTVENSNLNVNRVKDDEEKTERTESDVFDRDVPTLGSQSDSENANTNNGTQSGNETANPNLTETLSDRFDGDLNEYGIPRSQSLTSSVANNAPQSVRDDVELPETLEERDTINNTANRDNTGNLSHIPGEWEATPATASTDVLSNETTEVIEDGSTTKRANSNEDGESVSSIQESPKISAQPKAKTINEEFPPIQELHIDESDSSSSDDDEFEDTREIPSATVKTLQTPYNAQPTSSLEIHTEQVIKYPAPGTSPSHNEGNSKKASTNSILPVKDEFDDEFAGLEQAAVEEDNGADSESEFENVANAGSMEQFETIDHKDLDDELQMNAFTGTLTSSSNPTIPKPQVQQQSTSDPAQVSNDEWDEIFAGFGNSKAEPTKVATPSIPQQPIPLKNDPIVDASLSKGPIVNRGVATTPKSLAVEELSGMGFTEEEAHNALEKCNWDLEAATNFLLDSA
- binding [1]: binds

B5: Abp1 (protein, UniProt P15891 1-592)
chain: MALEPIDYTTHSREIDAEYLKIVRGSDPDTTWLIISPNAKKEYEPESTGSSFHDFLQLFDETKVQYGLARVSPPGSDVEKIIIIGWCPDSAPLKTRASFAANFAAVANNLFKGYHVQVTARDEDDLDENELLMKISNAAGARYSIQTSSKQQGKASTPPVKKSFTPSKSPAPVSKKEPVKTPSPAPAAKISSRVNDNNDDDDWNEPELKERDFDQAPLKPNQSSYKPIGKIDLQKVIAEEKAKEDPRLVQKPTAAGSKIDPSSDIANLKNESKLKRDSEFNSFLGTTKPPSMTESSLKNDDDKVIKGFRNEKSPAQLWAERKAKQNSGNAETKAEAPKPEVPEDEPEGEPDVKDLKSKFEGLAASEKEEEEMENKFAPPPKKSEPTIISPKPFSKPQEPVKAEEAEQPKTDYKKIGNPLPGMHIEADNEEEPEENDDDWDDDEDEAAQPPLPSRNVASGAPVQKEEPEQEEIAPSLPSRNSIPAPKQEEAPEQAPEEEIEEEAEEAAPQLPSRSSAAPPPPPRRATPEKKPKENPWATAEYDYDAAEDNELTFVENDKIINIEFVDDDWWLGELEKDGSKGLFPSNYVSLGN
- binding [1]: binds

B6: Ysc84 (protein, UniProt P32793 1-468)
chain: MGINNPIPRSLKSETKKAAKVLRSFVKPNQVFGADQVIPPYVLKRAKGLAIITVLKAGFLFSGRAGSGVIVARLKDGTWSAPSAIAMAGAGAGGMVGVELTDFVFILNSEEAVRSFSEFGTITLGGNVSVSAGPLGRSAEAAASASTGGVSAVFAYSKSKGLFAGVSVEGSAILERREANRKFYGDNCTSKMILSGRVKVPPAADPLLRILESRAFNFTRHDHDDNASGDDFYDDGQYSDNTSHYYDDIPDSFDSTDESSTRPNTRSSRRRGMSLGSRSRYDDDYDDDGYGRGRGYGDFDSEDEDYDYGRSPNRNSSRNRGPQIDRGTKPRANTRWEDDLYDRDTEYSRPNHSGRDYDNTRGNRRGYGRERGYSLGHGPTHPSNMSNVDDLSHKMSKTGLGNESTATNSATPTAVALYNFAGEQPGDLAFKKGDVITILKKSDSQNDWWTGRTNGKEGIFPANYVRVS
- binding [1]: binds

The next lines start with the values.

- binding [1]: binds
Molecule: Chc1 (from UniProt P22137 1-1653)

- binding [1]: binds
Molecule: Las17 (from UniProt Q12446 1-633)

- binding [1]: binds
Molecule: Hsp104 (from UniProt P31539 1-908)

- binding [1]: binds
B4: Lsb3 (protein, UniProt P43603 1-459)
chain: MGINNPIPRSLKSETKKAAKILASFVKPNQVFGADQVIPPDVLKRAKGLAIITILKAGFLFSGRAGSGVIVARLKDGTWSAPSAIAMAGAGAGGMVGIELTDFVFILNTQDAVKSFSEFGTITLGGNVSVSAGPLGRSAEAAASASAGGVAAVFAYSKSKGLFAGVSVEGSAIIERREANRKFYGDNCTAKMILSGRIRPPPAVDPLFRVLESRAFNYRPSNGGRGSFDDDEDDYYDDDDYYNDIPSSFSSTDASSTRPNTRSTRRRAQSGSRYTFDDDDDDDDYGTGYSRNSRLAPTNSGGSGGKLDDPSGASSYYASHRRSGTAQSRARSSRNRWADDEYDDYDDDYESGYRRGNGRDRTKDREVDDLSNRFSKSRISSASTPQTSQGRFTAPTSPSTSSPKAVALYSFAGEESGDLPFRKGDVITILKKSDSQNDWWTGRVNGREGIFPANYVELV

From article doi:10.1101/145664
